Assay results from PubChem BioAssay (NCATS).
This list was built around the results that the source calls inconclusive (neither active nor inactive); the mix of calls is not that of the screen. Where the call is inconclusive, the potency comes from a doubtful curve fit. Activity calls are given as the source filed them. The call rests on the fitted dose curve; in most records, active means well fitted cell-killing curve with a large enough effect; inconclusive means small, poorly fitted or top-dose-only effect, or effect the other way; inactive means no such curve, though single readings can be large or run the other way.

Experiments:
[1] = Quantitative High-Throughput drug screen in 47 multiple myeloma cell lines against the NCATS MIPE library collection: Delta47_JCRB cell viability assay (AID 1918925; further: nearly all actives have a fitted effect of over 45% in size); conditions: Delta47 myeloma viability, CellTiter-Glo ATP, 48 h; viability (% of DMSO): at 45.8 µM (top of the series)
Summary of the method: (§1)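 Viability readout: CellTiter-Glo luminescence following 5 min room-temperature incubation with reagent. Prior exposure: 48 h, 37C, humidified 5% CO2, 500 cells per well.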

[2] = Quantitative High-Throughput drug screen in 47 multiple myeloma cell lines against the NCATS MIPE library collection: EJM_DSMZ cell viability assay (AID 1918926; further: nearly all actives have a fitted effect of over 30% in size); conditions: EJM myeloma cell viability, CellTiter-Glo ATP, 48 h; viability, % of control: at 45.8 µM (top of the series)
Summary of the method: as §1

[3] = Quantitative High-Throughput drug screen in 47 multiple myeloma cell lines against the NCATS MIPE library collection: ARP1_JJKsccF8 cell viability assay (AID 1918928; further: nearly all actives have a fitted effect of over 40% in size); conditions: ARP1 myeloma cells viability, CellTiter-Glo ATP, 48 h; viability: at 45.8 µM (top of the series)
Summary of the method: (§2)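 Myeloma cells at 500 per well in 1536-well format treated with MIPE 4.0 library by pin transfer for 48 h at 37C, 5% CO2. Viability from ATP luminescence (CellTiter-Glo), normalized to DMSO (100%) and media-only (0%) wells.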

[4] = Quantitative High-Throughput drug screen in 47 multiple myeloma cell lines against the NCATS MIPE library collection: ARD_JJKsccE7 cell viability assay (AID 1918929); conditions: ARD myeloma cell line viability, CellTiter-Glo, 48 h; viability: at 45.8 µM (top of the series)
Summary of the method: as §1

[5] = Quantitative High-Throughput drug screen in 47 multiple myeloma cell lines against the NCATS MIPE library collection: Karpas620_DSMZ cell viability assay (AID 1918959); conditions: Karpas620 myeloma viability, CellTiter-Glo ATP luminescence, 48 h; viability (% of DMSO): at 45.8 µM (top of the series); further: nearly all actives have a fitted effect of over 30% in size
Summary of the method: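 Luminescent ATP measurement with CellTiter-Glo gives viability, scaled between DMSO-only wells (100%) and media-only wells (0%). Cells, 500 per well, faced library compounds for 48 hours at 37C.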

[6] = Quantitative High-Throughput drug screen in 47 multiple myeloma cell lines against the NCATS MIPE library collection: KMM1_JCRB cell viability assay (AID 1918960); conditions: KMM1 myeloma viability, CellTiter-Glo ATP luminescence, 48 h; viability (% of DMSO): at 45.8 µM (top of the series); further: nearly all actives have a fitted effect of over 30% in size
Summary of the method: as §2

[7] = Quantitative High-Throughput drug screen in 47 multiple myeloma cell lines against the NCATS MIPE library collection: Karpas417_ECACC cell viability assay (AID 1918961); conditions: Karpas417 myeloma viability, CellTiter-Glo ATP luminescence, 48 h; viability (% of DMSO): at 45.8 µM (top of the series)
Summary of the method: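 Steps: seed 500 cells per well; pin-transfer MIPE 4.0 library; incubate 48 h at 37C, 5% CO2, humidified; add CellTiter-Glo, 5 min room temperature; read luminescence.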

[8] = Quantitative High-Throughput drug screen in 47 multiple myeloma cell lines against the NCATS MIPE library collection: AMO1_DSMZ cell viability assay (AID 1918927; further: nearly all actives have a fitted effect of over 30% in size); conditions: AMO1 myeloma cells viability, CellTiter-Glo ATP luminescence, 48 h; viability, % of DMSO: at 45.8 µM (top of the series)
Summary of the method: as §1
Potency means the concentration at half of the fitted maximal effect.

Row | Structure (SMILES) | Potency [1] | Potency [2] | Potency [3] | Potency [4] | Potency [5] | Potency [6] | Potency [7] | Potency [8] | viability, % of control [2]
1 | COC(=O)[C@H](c1ccccc1Cl)N1CCc2sccc2C1 | inactive | inconclusive: 18.7 µM [cytotoxic, partial curve, poor fit] | inactive | inconclusive: 18.7 µM [cytotoxic, partial curve, poor fit] | inconclusive: 29.6 µM [cytotoxic, single point] | inconclusive: 33.2 µM [cytotoxic, single point] | inconclusive: 0.003 µM [cytotoxic, full curve, poor fit] |  | 
2 | NS(=O)(=O)c1cc2c(cc1Cl)NC=NS2(=O)=O | inconclusive: 0.0332 µM [rising, full curve, poor fit] | inconclusive: 37.2 µM [cytotoxic, single point] |  |  | inactive |  |  |  | 
3 | N[C@@H](Cc1ccc(O)c(O)c1)C(=O)O | inconclusive: 0.105 µM [rising, full curve, poor fit] | inactive | inconclusive: 37.2 µM [cytotoxic, single point] |  |  |  | inconclusive: 2.35 µM [rising, partial curve, poor fit] | inconclusive: 0.0042 µM [rising, full curve, poor fit] | 
4 | COc1cc(CNC(=O)CCCCC=CC(C)C)ccc1O | inactive | active: 10.5 µM |  | inactive |  |  | inconclusive: 0.0023 µM [rising, full curve, poor fit] |  | 
5 | CC(C)[C@H](O)C(=O)N[C@@H](C)C(=O)N[C@@H]1C(=O)N(C)CCc2ccccc21 | inconclusive: 20.9 µM [cytotoxic, partial curve] | inconclusive: 37.2 µM [cytotoxic, single point] |  | inactive |  |  | active: 0.0021 µM |  | 
6 | C[C@H]1O[C@H](O[C@H]2[C@H](O)[C@@H](O)[C@@H](O[C@H]3[C@H](O)[C@@H](O)C(O)O[C@H]3CO)O[C@H]2CO)[C@H](O)[C@@H](O)[C@H]1N[C@H]1C=C(CO)[C@@H](O)[C@H](O)[C@@H]1O (stereo not given in full) | inconclusive: 0.0012 µM [rising, full curve, poor fit] | inactive | inactive | inconclusive: 37.2 µM [cytotoxic, partial curve, poor fit] | inconclusive: 18.7 µM [cytotoxic, partial curve] |  |  |  | 
7 | CN(C)CCc1c[nH]c2ccc(C[C@H]3COC(=O)N3)cc12 | inactive | inactive | inactive |  |  | inconclusive: 18.7 µM [cytotoxic, partial curve, poor fit] | active: 3.72 µM |  | 
8 | NCc1c[nH]c(=S)n1[C@H]1CCc2c(F)cc(F)cc2C1 | inconclusive: 18.7 µM [cytotoxic, partial curve] | inconclusive: 26.4 µM [cytotoxic, single point] |  |  | inconclusive: 23.5 µM [cytotoxic, partial curve] | inconclusive: 33.2 µM [cytotoxic, single point] | inconclusive: 16.6 µM [cytotoxic, partial curve, poor fit] |  | 
9 | COc1ccc(Cn2ccc3ccc(C(=O)NO)cc32)cc1 | inconclusive: 23.5 µM [cytotoxic, single point] | active: 20.9 µM | inconclusive: 14.8 µM [cytotoxic, partial curve] |  |  | inconclusive: 33.2 µM [cytotoxic, single point] | inconclusive: 10.5 µM [cytotoxic, partial curve, poor fit] | active: 16.6 µM | 
10 | CCNC(=O)Nc1ccc(Oc2ncnc(N)c2C=NOC)cc1Cl | inconclusive: 4.69 µM [cytotoxic, full curve, poor fit] |  | active: 20.9 µM | active: 5.9 µM | active: 4.69 µM |  | inconclusive: 1.87 µM [cytotoxic, partial curve, poor fit] |  | inconclusive: 81.9% [cytotoxic]
11 | Cc1ccccc1C(=O)c1ccc(Nc2ccc(Br)cc2N)cc1Cl | inconclusive: 37.2 µM [cytotoxic, single point] | active: 14.8 µM | inconclusive: 11.8 µM [cytotoxic, partial curve] |  |  | inconclusive: 5.9 µM [cytotoxic, partial curve, poor fit] | inconclusive: 18.7 µM [cytotoxic, partial curve, poor fit] |  | 

No new results follow: entries from further up.
Row | Structure (SMILES) | Potency [1] | Potency [2] | Potency [3] | Potency [4] | Potency [5] | Potency [6] | Potency [7] | Potency [8] | viability, % of control [2]
1 | COC(=O)[C@H](c1ccccc1Cl)N1CCc2sccc2C1 | inactive | inconclusive: 18.7 µM [cytotoxic, partial curve, poor fit] | inactive | inconclusive: 18.7 µM [cytotoxic, partial curve, poor fit] | inconclusive: 29.6 µM [cytotoxic, single point] | inconclusive: 33.2 µM [cytotoxic, single point] | inconclusive: 0.003 µM [cytotoxic, full curve, poor fit] |  | 
2 | NS(=O)(=O)c1cc2c(cc1Cl)NC=NS2(=O)=O | inconclusive: 0.0332 µM [rising, full curve, poor fit] | inconclusive: 37.2 µM [cytotoxic, single point] |  |  | inactive |  |  |  | 
